Results are given in words; binding and its absence hold for the method and conditions named. Binding seen in cells or lysates may run through a third protein.

This assay concerns the target T1, occludin (human (endogenous in Caco-2; cell line not named for the co-IP)) (UniProt Q16625).
T1 sequence: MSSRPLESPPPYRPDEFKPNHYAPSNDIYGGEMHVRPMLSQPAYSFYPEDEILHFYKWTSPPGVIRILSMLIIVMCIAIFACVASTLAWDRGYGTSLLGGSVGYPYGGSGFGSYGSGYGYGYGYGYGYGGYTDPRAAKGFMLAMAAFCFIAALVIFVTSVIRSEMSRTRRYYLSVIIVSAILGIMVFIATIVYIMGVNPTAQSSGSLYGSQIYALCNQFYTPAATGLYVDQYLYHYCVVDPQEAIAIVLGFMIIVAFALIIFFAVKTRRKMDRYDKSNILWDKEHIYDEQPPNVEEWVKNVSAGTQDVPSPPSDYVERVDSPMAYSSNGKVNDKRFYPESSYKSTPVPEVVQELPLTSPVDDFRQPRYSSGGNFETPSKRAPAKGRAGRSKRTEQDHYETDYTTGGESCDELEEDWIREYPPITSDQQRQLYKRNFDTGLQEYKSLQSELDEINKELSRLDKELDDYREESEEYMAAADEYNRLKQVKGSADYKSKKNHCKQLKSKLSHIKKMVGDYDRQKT
Put plainly: co-IP; endogenous proteins; pre-cleared cell extracts (1 mg protein) in 50 mM Tris-HCl pH 7.4, 150 mM NaCl, 1 mM EDTA, 1% NP-40; IP with antibodies to E-cadherin, claudin-1 or occludin overnight at 4°C, Protein G beads; control IP with IgG/unrelated serum; Western blot. In general terms: In western blotting, separated proteins are transferred to a membrane and probed.

As to γ-tubulin, the binding result is on record as “no binding”.
